PubChem BioAssay AID2685 (National Center for Advancing Translational Sciences (NCATS), 2010)
Some of the results follow. Further columns of the screen follow, without active or inactive calls. Compounds called inactive in the main read-out are mostly missing here. Words in brackets tell the shape of the fitted curve; partial curves, single points and poor fits give uncertain potencies.

Assay: qHTS Assay for Lipid Storage Modulators in Drosophila S3 Cells;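 as to cell number change: cells counted by Cell Tracker Red CMTPX staining in the red channel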
Conditions: BODIPY lipid droplet fluorescence, 18-24 h; for cell number change: measured here: cell count max response, cells fed with added oleic acid
Summary of the method: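 Drosophila S3 cells got compounds at several concentrations plus oleic acid (400 uM solution). Laser-scanning cytometry with 488 nm excitation read lipid droplets at 500-530 nm and cells at 575-640 nm. Percent activity was relative to 20 uM Triacsin C.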

[1] = measured here: lipid fluorescence (Fed channel) AC50, cells fed with added oleic acid
[2] = measured here: cell number channel AC50, cells fed with added oleic acid

Row | SMILES | cell number change [%] | AC50 [1] | AC50 [2]
1 | CCCC(NC(=O)C(C)NC(=O)CO/N=C1\C=C2CCC3C4CCC(C(C)=O)[C@@]4(C)CCC3[C@@]2(C)CC1)C(=O)O (stereo partly drawn) | 2.84 | 0.58 µM [falling, single point] | 
2 | CCOc1ccc(N=CC2=C(O)CC(c3ccco3)CC2=O)cc1 (stereo not drawn) | 18.9 | 2.31 µM [rising, partial curve] | 
3 | CC(C)CNC(=S)N(Cc1ccco1)Cc1cc2cc3c(cc2[nH]c1=O)OCCO3 | 0.114 |  | 
4 | CC1=CC(C)(C)N2C(=O)C3(C(C#N)=C(N)OC4=C3C(=O)CC(C)(C)C4)c3cc(C)cc1c32 (stereo not drawn) | 51.6 | 0.517 µM [falling, full curve, poor fit] | 23.1 µM [rising, partial curve]
5 | N#Cc1ccc(CSc2nnc(-c3cccs3)n2-c2ccccc2)cc1 |  | 1.84 µM [rising, partial curve] | 2.91 µM [rising, partial curve]
6 | FC(F)(Cl)c1nnc2ccc(Cl)nn12 |  | 35.5 µM [rising, single point] | 
7 | C=CCn1cc(C(=O)N2CCc3ccccc3C2)c(=O)c2cc(S(=O)(=O)N(CC)CC)ccc21 | 20.4 | 2.06 µM [rising, partial curve, poor fit] | 
8 | COc1cccc(-c2ocnc2C(=O)Nc2ccc3c(c2)CCC3)c1 | 8.75 |  | 
9 | CC(C)n1c(SC2C(=O)CC(C)(C)CC2=O)nc2c1c(=O)n(C)c(=O)n2C | -6.57 |  | 
10 | O=C(/C=C/c1ccc2c(c1)OCO2)Nc1nc(-c2ccc(F)cc2F)cs1 | -43.6 | 0.116 µM [falling, full curve, poor fit] | 29.1 µM [falling, single point]
11 | COc1ccc(/C(C)=N/NC(=O)CCC(=O)Nc2ccc(Cl)cc2Cl)c(OC)c1 | -0.639 | 18.4 µM [rising, partial curve] | 
12 | Nc1ccc(N=Nc2ccccc2Cl)c(N)n1 | -23 | 29.1 µM [falling, single point] | 
13 | CC(C)(C)NC(=O)NC(=O)CN1C(=O)NC(C)(c2ccccc2)C1=O (stereo not drawn) | 9.46 | 29.1 µM [falling, single point] | 
14 | COC(=O)c1ccc(CSc2nc3ccc(Cl)cc3[nH]2)o1 |  |  | 2.59 µM [rising, single point]
15 | O=C(Cc1nc(-c2ccc(Br)s2)cs1)NCCN1CCOCC1 | 4.07 |  | 
16 | CN(C)C(=O)CSc1cccc2cccnc12 | -6.2 | 0.651 µM [falling, partial curve, poor fit] | 
17 | CCOC(=O)CCc1nn(C)c(=O)c2ccccc12 | 30.5 |  | 6.51 µM [rising, partial curve]
18 | CCN(CC)CCCNC(=O)c1csc(Nc2cccc3ccccc23)n1 | -4.5 | 0.82 µM [rising, single point] | 
19 | COC(=O)c1[nH]c2ccccc2c1NS(=O)(=O)c1ccc(F)c(C)c1 | 3.65 | 6.51 µM [rising, single point] | 
20 | Cc1cc(C)c(OCC(=O)OCC(=O)N2c3ccccc3CC2C)c(C)c1 (stereo not drawn) | -99.5 | 7.31 µM [rising, partial curve] | 20.6 µM [falling, single point]
21 | CCC(C)(C)C1CCC(=NNC(=O)c2ccoc2C)CC1 (stereo not drawn) |  |  | 0.164 µM [rising, full curve, poor fit]

Row | SMILES | cell number change [%] | AC50 [1] | AC50 [2]
22 | COc1ccc(OCCC(=O)Nc2cc3c(cc2C(=O)O)OCCCO3)cc1 | 50 | 0.13 µM [falling, full curve, poor fit] | 29.1 µM [rising, single point]
23 | C=CCn1c(-c2ccc(C)cc2)nc2ccccc21 |  | 8.2 µM [rising, partial curve] | 2.31 µM [rising, partial curve]
24 | COc1ccc(-c2nc3ccccc3n2Cc2ccccc2)cc1 |  |  | 0.731 µM [rising, single point]
25 | CSc1ccc(CNC(=O)C2Cc3cc(S(=O)(=O)N4CCCCC4)ccc3N2C(C)=O)cc1 (stereo not drawn) | -28.3 | 0.58 µM [rising, single point] | 
26 | O=P(O)(c1ccccc1)c1ccccc1O | 2.38 | 1.3 µM [falling, full curve] | 
27 | O=C1CCCC(=O)C1C1c2ccccc2CCN1C(=O)CCl (stereo not drawn) | 0.12 | 29.1 µM [falling, single point] | 
28 | COc1ccc(NC(=O)NNC(=O)CCc2ccc(O)c(O)c2)cc1OC | 58.8 | 23.1 µM [rising, partial curve] | 10.3 µM [rising, partial curve]
29 | CNC(=O)c1ccc(-n2cccn2)nc1 | 15.3 |  | 
30 | Cc1cc(NC(=O)c2ccc3c(c2)OCCO3)no1 | 96.3 |  | 29.1 µM [rising, single point]
31 | COC(=O)C1C/C(=N\NS(=O)(=O)c2ccc(C)cc2)c2ccccc2C1 (stereo not drawn) |  | 29.1 µM [rising, single point] | 
32 | COc1ccccc1NS(=O)(=O)c1cc(NC(=O)CCC2CCCC2)ccc1N1CCOCC1 | 16.7 | 29.1 µM [rising, single point] | 
33 | CC(NC(=O)c1cc(-c2ccccn2)nc2ccc(Cl)cc12)C1CCCO1 (stereo not drawn) | -15.8 |  | 
34 | COC(=O)c1cc(F)c(-n2cncn2)c(F)c1 |  | 29.1 µM [rising, single point] | 
35 | Cc1ccc(S(=O)(=O)N2CCCN(S(=O)(=O)C3CCS(=O)(=O)C3)CC2)cc1 (stereo not drawn) | -95.5 | 23.1 µM [falling, single point] | 0.103 µM [falling, full curve, poor fit]
36 | COc1ccc(C(=O)C2CCCN(Cc3cccn3-c3nccs3)C2)cc1F (stereo not drawn) | 7.3 | 23.1 µM [rising, single point] | 
37 | O=C(O)COc1ccccc1/C=N/NC(=O)CSc1nc2ccccc2n1Cc1ccccc1 | 22.7 | 29.1 µM [rising, single point] | 
38 | CCOC(=O)Cn1c(C)c(Br)c(=O)c2cccc(C)c21 | 37.5 | 0.13 µM [falling, full curve, poor fit] | 20.6 µM [rising, single point]
39 | CC(C)(C)c1cc(CSC(=S)NC2CCS(=O)(=O)C2)c(Br)c(C(C)(C)C)c1 (stereo not drawn) | 110 |  | 23.1 µM [rising, single point]
40 | O=C(NCC1CCCO1)/C(=C\c1cccs1)NC(=O)c1ccccc1 (stereo not drawn) | 20.5 | 0.00461 µM [rising, full curve, poor fit] | 
41 | Cc1ccc(-c2noc(C3CCCN(C(=O)c4ccccc4)C3)n2)o1 (stereo not drawn) | 5.86 |  | 
42 | Cc1ccc2nc3c(cc(C#N)c(=N)n3CC3CCCO3)c(=O)n2c1 (stereo not drawn) | 27.8 | 0.164 µM [rising, full curve, poor fit] | 

Row | SMILES | cell number change [%] | AC50 [1] | AC50 [2]
43 | O=C(Nc1ccccc1N1CCCCC1)C1=COCCO1 | -25.2 | 0.058 µM [falling, full curve, poor fit] | 
44 | O=C(Nc1cccc(O)c1)c1c(O)c2ccccc2[nH]c1=O | 3.11 |  | 
45 | CC(=O)Nc1ccc(S(=O)(=O)NC2(C(F)(F)F)NC(=O)N(Cc3ccccc3)C2=O)cc1 (stereo not drawn) | -32.2 |  | 29.1 µM [falling, single point]
46 | O=C(NCCN1CCOCC1)c1ccc(-c2ccccc2)cc1 | 6.29 | 6.51 µM [falling, single point] | 
47 | C=CCN(c1ccccc1)S(=O)(=O)c1cccc(C(=O)N(CC)CC(=O)Nc2c(F)cccc2F)c1 |  | 29.1 µM [falling, single point] | 
48 | CCOC(=O)C(C)N1C(=O)S/C(=C/c2ccc3c(c2)n(C)c(=O)n3C)C1=O (stereo not drawn) | 0.44 | 29.1 µM [falling, single point] | 
49 | Cc1nn(-c2ccccn2)c2c1C(c1c(F)cccc1Cl)C1=C(N2)c2ccccc2C1=O (stereo not drawn) | -1.03 | 0.326 µM [rising, full curve] | 
50 | OC(COC(c1ccc(F)cc1)c1ccc(F)cc1)CN1CCc2ccccc2C1 (stereo not drawn) | -65.4 |  | 23.1 µM [falling, single point]
51 | COc1ccc(NC(=O)c2cc([N+](=O)[O-])ccc2NC(=O)CNCc2ccccn2)c(OC)c1 | 14.3 | 29.1 µM [falling, single point] | 
52 | COc1ccc(NC(=O)/C(C#N)=C/c2ccc3c(c2)n(C)c(=O)n3C)cc1 | -43.6 |  | 10.3 µM [falling, partial curve, poor fit]
53 | Cc1nc(-c2ccccc2)nc2[nH]ccc(=O)c12 | 54 | 18.4 µM [rising, partial curve] | 29.1 µM [rising, single point]
54 | O=C(CSc1nc(-c2ccccc2)c(-c2ccccc2)o1)NCCCO | 10.6 | 29.1 µM [falling, single point] | 
55 | Cc1ccc2c(C)c(C(=O)N3CCN(Cc4ccccn4)CC3)oc2c1C | 31.7 |  | 23.1 µM [rising, partial curve]
56 | CS(=O)(=O)Nc1ccccc1C(=O)c1ccccc1 | 10.5 |  | 
57 | COc1ccc(-c2csc(NC(=S)NC(=O)c3ccc(S(=O)(=O)N(C)C)cc3)n2)cc1OC | -23.9 | 1.46 µM [falling, single point] | 
58 | NC(=O)c1nsc(C(=O)N(CC(=O)NCc2ccc(F)cc2)Cc2ccco2)c1N | 27.1 | 3.66 µM [rising, single point] | 
59 | COc1ccc(CNCCc2ccc([N+](=O)[O-])cc2)c(OC)c1OC | 19.3 | 6.51 µM [rising, single point] | 
60 | O=C(Nc1nnc(C2=COCCO2)o1)c1ccc(Cl)cc1 | -7.33 | 2.31 µM [rising, full curve] | 
61 | COc1cc(OC)cc(C(=O)NCCNc2nc3cc(C)cc(C)c3cc2C#N)c1 | -18.8 |  | 
